The list shows a part of the results.
Columns and labels:
Experiment in all cases: glycan array binding signal (z-score within array); higher = stronger binding
Details in all cases: glycan notation: IUPAC condensed, linker removed
[1] = molecular target: Fuc(a1-3)GlcNAc
Method in brief: (§1)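 Glycan array data came from 3228 arrays in the Consortium for Functional Glycomics database, and only arrays with an available protein sequence were kept. Glycan names were put into IUPAC-condensed notation, and columns mapping to the same glycan were averaged. The binding signal is a within-array Z-score, averaged across arrays of one protein sequence run at different concentrations or buffers and across linkers. A negative Z-score can be read as non-binding.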

[2] = molecular target: Fuc(a1-3)[Gal(b1-4)]Glc6S
Method in brief: as §1

[3] = molecular target: Fuc(a1-3)[Gal(b1-4)]GlcNAc
Method in brief: as §1

[4] = molecular target: Fuc(a1-3)[Gal(b1-4)]GlcNAc(b1-2)Man
Method in brief: as §1

[5] = molecular target: Fuc(a1-3)[Gal(b1-4)]GlcNAc(b1-2)Man(a1-3)[Fuc(a1-3)[Gal(b1-4)]GlcNAc(b1-2)Man(a1-6)]Man(b1-4)GlcNAc(b1-4)GlcNAc
Method in brief: as §1

[6] = molecular target: Fuc(a1-3)[Gal(b1-4)]GlcNAc(b1-2)Man(a1-3)[Fuc(a1-3)[Gal(b1-4)]GlcNAc(b1-2)Man(a1-6)]Man(b1-4)GlcNAc(b1-4)[Fuc(a1-6)]GlcNAc
Method in brief: as §1

[7] = molecular target: Fuc(a1-3)[Gal(b1-4)]GlcNAc(b1-3)Gal(b1-3)[Fuc(a1-4)]GlcNAc
Method in brief: as §1

[8] = molecular target: Fuc(a1-3)[Gal(b1-4)]GlcNAc(b1-3)Gal(b1-4)[Fuc(a1-3)]GlcNAc
Method in brief: as §1

[9] = molecular target: Fuc(a1-3)[Gal(b1-4)]GlcNAc(b1-3)Gal(b1-4)[Fuc(a1-3)]GlcNAc(b1-3)Gal(b1-4)[Fuc(a1-3)]GlcNAc
Method in brief: as §1

[10] = molecular target: Fuc(a1-3)[Gal(b1-4)]GlcNAc(b1-3)GalNAc
Method in brief: as §1

[11] = molecular target: Fuc(a1-3)[Gal(b1-4)]GlcNAc(b1-6)GalNAc
Method in brief: as §1

[12] = molecular target: Fuc(a1-3)[Gal(b1-4)]GlcNAc(b1-6)[Gal(b1-3)GlcNAc(b1-3)]Gal(b1-4)Glc
Method in brief: as §1

[13] = molecular target: Fuc(a1-3)[Gal(b1-4)]GlcNAc6S
Method in brief: as §1

[14] = molecular target: Fuc(a1-3)[Gal3S(b1-4)]Glc
Method in brief: as §1

[15] = molecular target: Fuc(a1-3)[Gal3S(b1-4)]GlcNAc
Method in brief: as §1

[16] = molecular target: Fuc(a1-3)[Gal3S(b1-4)]GlcNAc6S
Method in brief: as §1

[17] = molecular target: Fuc(a1-3)[GalNAc(b1-4)]GlcNAc
Method in brief: as §1

[18] = molecular target: Fuc(a1-3)[GalNAc(b1-4)]GlcNAc6S
Method in brief: as §1

[19] = molecular target: Fuc(a1-4)GlcNAc
Method in brief: as §1

[20] = molecular target: Fuc(b1-3)GlcNAc
Method in brief: as §1

[21] = molecular target: Gal(a1-2)Gal
Method in brief: as §1

[22] = molecular target: Gal(a1-3)Gal
Method in brief: as §1

[23] = molecular target: Gal(a1-3)Gal(b1-3)GlcNAc
Method in brief: as §1

[24] = molecular target: Gal(a1-3)Gal(b1-3)GlcNAc(b1-2)Man
Method in brief: as §1

[25] = molecular target: Gal(a1-3)Gal(b1-3)GlcNAc(b1-2)Man(a1-3)[Gal(a1-3)Gal(b1-3)GlcNAc(b1-2)Man(a1-6)]Man(b1-4)GlcNAc(b1-4)GlcNAc
Method in brief: as §1

[26] = molecular target: Gal(a1-3)Gal(b1-3)GlcNAc(b1-3)GalNAc
Method in brief: as §1

[27] = molecular target: Gal(a1-3)Gal(b1-3)GlcNAc(b1-6)GalNAc
Method in brief: as §1

[28] = molecular target: Gal(a1-3)Gal(b1-3)[Fuc(a1-4)]GlcNAc(b1-2)Man(a1-3)[Gal(a1-3)Gal(b1-3)[Fuc(a1-4)]GlcNAc(b1-2)Man(a1-6)]Man(b1-4)GlcNAc(b1-4)GlcNAc
Method in brief: as §1

[29] = molecular target: Gal(a1-3)Gal(b1-4)Glc
Method in brief: as §1

[30] = molecular target: Gal(a1-3)Gal(b1-4)GlcNAc
Method in brief: as §1

[31] = molecular target: Gal(a1-3)Gal(b1-4)GlcNAc(b1-2)Man
Method in brief: as §1

[32] = molecular target: Gal(a1-3)Gal(b1-4)GlcNAc(b1-2)Man(a1-3)[Gal(a1-3)Gal(b1-4)GlcNAc(b1-2)Man(a1-6)]Man(b1-4)GlcNAc(b1-4)GlcNAc
Method in brief: as §1

[33] = molecular target: Gal(a1-3)Gal(b1-4)GlcNAc(b1-3)GalNAc
Method in brief: as §1

[34] = molecular target: Gal(a1-3)Gal(b1-4)GlcNAc(b1-6)GalNAc
Method in brief: as §1

[35] = molecular target: Gal(a1-3)Gal(b1-4)[Fuc(a1-3)]GlcNAc
Method in brief: as §1

[36] = molecular target: Gal(a1-3)Gal(b1-4)[Fuc(a1-3)]GlcNAc(b1-2)Man(a1-3)[Gal(a1-3)Gal(b1-4)[Fuc(a1-3)]GlcNAc(b1-2)Man(a1-6)]Man(b1-4)GlcNAc(b1-4)GlcNAc
Method in brief: as §1

[37] = molecular target: Gal(a1-3)GalNAc
Method in brief: as §1

B1: Gs78B-bfa-542-29-542 (Bacteroides fragilis) (protein)
chain: SEDINRNPLLPTKEDEKMDGVIYGAYLPNLEKSVIPIGTASESTEPVNRYQIGVNLAGDAWAGYMSPRDNKFNGSKNFTNYFMYENWVNYVYSFMVTDVYSPWMQIKRISQDEGTRNDEIYALAQIIKIAALHRTTDMFGPIPYSQVGKGSFKVAYDSQESVYRSFLKELEEAVQTLDDYSNKSKEVLPAFDIVYNGDVNKWMRFANSLMLRLAIRVRFADAGLAKEYAEKAVKHPAGLINSKELAAQMGKGAGLQMKNPLKVINEEYNDTRMGATIYSYLAGYNDARAAVYFVKNNGFKAVRCGIAKSGDAYNGFTRPNVHEDDPLYWMKASEVCFLKAEGALAGFDMGGSAGDFYNAGIRMSFSENGLDNSSAETYLKDSTRKPANYTDTSNGELSANAPSSITIRWENGATEEEKLERIITQKYLAIFPNGQEAWTEWRRTGYPRQIVVAENKTNSAVLIGNGYDLGGVRRLPYPRTEYEQNGENLHNAISQYLGGVDNAATKVWWDKKSK
glycan array binding signal (z-score) [1]: -0.813 | glycan array binding signal (z-score) [2]: 0.092 | glycan array binding signal (z-score) [3]: -0.727 | glycan array binding signal (z-score) [4]: -0.619 | glycan array binding signal (z-score) [5]: 1.04 | glycan array binding signal (z-score) [6]: 0.524 | glycan array binding signal (z-score) [7]: -0.811 | glycan array binding signal (z-score) [8]: 0.211 | glycan array binding signal (z-score) [9]: -0.127 | glycan array binding signal (z-score) [10]: 0.574 | glycan array binding signal (z-score) [11]: 0.625 | glycan array binding signal (z-score) [12]: 1.76 | glycan array binding signal (z-score) [13]: -0.74 | glycan array binding signal (z-score) [14]: 0.204 | glycan array binding signal (z-score) [15]: -0.79 | glycan array binding signal (z-score) [16]: 1.34 | glycan array binding signal (z-score) [17]: 2.08 | glycan array binding signal (z-score) [18]: 2.67 | glycan array binding signal (z-score) [19]: -0.834 | glycan array binding signal (z-score) [20]: -0.804 | glycan array binding signal (z-score) [21]: -0.171 | glycan array binding signal (z-score) [22]: -0.783 | glycan array binding signal (z-score) [23]: 0.194 | glycan array binding signal (z-score) [24]: 0.439 | glycan array binding signal (z-score) [25]: 0.647 | glycan array binding signal (z-score) [26]: 0.171 | glycan array binding signal (z-score) [27]: 0.533 | glycan array binding signal (z-score) [28]: 4.3 | glycan array binding signal (z-score) [29]: -0.167 | glycan array binding signal (z-score) [30]: -0.138 | glycan array binding signal (z-score) [31]: 0.182 | glycan array binding signal (z-score) [32]: 2.05 | glycan array binding signal (z-score) [33]: 0.878 | glycan array binding signal (z-score) [34]: -0.331 | glycan array binding signal (z-score) [35]: -0.047 | glycan array binding signal (z-score) [36]: 1.42 | glycan array binding signal (z-score) [37]: -0.126

Source: the supplement of paper PMC8728848
